{
  "sequences": {"note": "By UniProt entry, the sequences of proteins in these tests, tags left out.", "UniProt Q9Y265": "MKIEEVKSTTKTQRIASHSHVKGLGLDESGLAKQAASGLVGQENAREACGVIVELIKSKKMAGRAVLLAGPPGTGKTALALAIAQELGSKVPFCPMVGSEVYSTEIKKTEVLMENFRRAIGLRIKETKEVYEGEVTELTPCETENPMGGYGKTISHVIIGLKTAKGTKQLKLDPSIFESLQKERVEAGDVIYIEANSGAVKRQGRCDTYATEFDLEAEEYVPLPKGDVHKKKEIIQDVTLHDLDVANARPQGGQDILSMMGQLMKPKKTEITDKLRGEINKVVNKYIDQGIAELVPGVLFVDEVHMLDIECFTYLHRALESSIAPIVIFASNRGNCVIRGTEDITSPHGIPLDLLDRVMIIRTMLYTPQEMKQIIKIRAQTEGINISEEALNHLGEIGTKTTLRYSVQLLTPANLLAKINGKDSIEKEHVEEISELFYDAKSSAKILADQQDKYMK"},
  "source": "paper PMC5886296",
  "molecules": {"B1": {"name": "SF-TAP-DNAAF1 wild-type (p.Leu191) (protein, UniProt Q8NEP3-1 1-725)", "chain": "MHPEPSEPATGGAAELDCAQEPGVEESAGDHGSAGRGGCKEEINDPKEICVGSSDTSYHSQQKQSGDNGSGGHFAHPREDREDRGPRMTKSSLQKLCKQHKLYITPALNDTLYLHFKGFDRIENLEEYTGLRCLWLQSNGIQKIENLEAQTELRCLFLQMNLLRKIENLEPLQKLDALNLSNNYIKTIENLSCLPVLNTLQMAHNHLETVEDIQHLQECLRLCVLDLSHNKLSDPEILSILESMPDLRVLNLMGNPVIRQIPNYRRTVTVRLKHLTYLDDRPVFPKDRACAEAWARGGYAAEKEERQQWESRERKKITDSIEALAMIKQRAEERKRQRESQERGEMTSSDDGENVPASAEGKEEPPGDRETRQKMELFVKESFEAKDELCPEKPSGEEPPVEAKREDGGPEPEGTLPAETLLLSSPVEVKGEDGDGEPEGTLPAEAPPPPPPVEVKGEDGDQEPEGTLPAETLLLSPPVKVKGEDGDREPEGTLPAEAPPPPPLGAAREEPTPQAVATEGVFVTELDGTRTEDLETIRLETKETFCIDDLPDLEDDDETGKSLEDQNMCFPKIEVISSLSDDSDPELDYTSLPVLENLPTDTLSNIFAVSKDTSKAARVPFTDIFKKEAKRDLEIRKQDTKSPRPLIQELSDEDPSGQLLMPPTCQRDAAPLTSSGDRDSDFLAASSPVPTESAATPPETCVGVAQPSQALPTWDLTAFPAPKAS"}, "B2": {"name": "IFT88-eYFP (protein, UniProt Q13099 1-824)", "chain": "MMQNVHLAPETDEDDLYSGYNDYNPIYDIEELENDAAFQQAVRTSHGRRPPITAKISSTAVTRPIATGYGSKTSLASSIGRPMTGAIQDGVTRPMTAVRAAGFTKAALRGSAFDPLSQSRGPASPLEAKKKDSPEEKIKQLEKEVNELVEESCIANSCGDLKLALEKAKDAGRKERVLVRQREQVTTPENINLDLTYSVLFNLASQYSVNEMYAEALNTYQVIVKNKMFSNAGILKMNMGNIYLKQRNYSKAIKFYRMALDQVPSVNKQMRIKIMQNIGVTFIQAGQYSDAINSYEHIMSMAPNLKAGYNLTICYFAIGDREKMKKAFQKLITVPLEIDEDKYISPSDDPHTNLVTEAIKNDHLRQMERERKAMAEKYIMTSAKLIAPVIETSFAAGYDWCVEVVKASQYVELANDLEINKAVTYLRQKDYNQAVEILKVLEKKDSRVKSAAATNLSALYYMGKDFAQASSYADIAVNSDRYNPAALTNKGNTVFANGDYEKAAEFYKEALRNDSSCTEALYNIGLTYEKLNRLDEALDCFLKLHAILRNSAEVLYQIANIYELMENPSQAIEWLMQVVSVIPTDPQVLSKLGELYDREGDKSQAFQYYYESYRYFPCNIEVIEWLGAYYIDTQFWEKAIQYFERASLIQPTQVKWQLMVASCFRRSGNYQKALDTYKDTHRKFPENVECLRFLVRLCTDLGLKDAQEYARKLKRLEKMKEIREQRIKSGRDGSGGSRGKREGSASGDSGQNYSASSKGERLSARLRALPGTNEPYESSSNKEIDASYVDPLGPQIERPKTAAKKRIDEDDFADEELGDDLLPE"}},
  "key": {"[1]": {"molecular_target": "T1, SF-TAP-DNAAF1 wild-type (p.Leu191) (human) (UniProt Q8NEP3)", "T1 sequence": "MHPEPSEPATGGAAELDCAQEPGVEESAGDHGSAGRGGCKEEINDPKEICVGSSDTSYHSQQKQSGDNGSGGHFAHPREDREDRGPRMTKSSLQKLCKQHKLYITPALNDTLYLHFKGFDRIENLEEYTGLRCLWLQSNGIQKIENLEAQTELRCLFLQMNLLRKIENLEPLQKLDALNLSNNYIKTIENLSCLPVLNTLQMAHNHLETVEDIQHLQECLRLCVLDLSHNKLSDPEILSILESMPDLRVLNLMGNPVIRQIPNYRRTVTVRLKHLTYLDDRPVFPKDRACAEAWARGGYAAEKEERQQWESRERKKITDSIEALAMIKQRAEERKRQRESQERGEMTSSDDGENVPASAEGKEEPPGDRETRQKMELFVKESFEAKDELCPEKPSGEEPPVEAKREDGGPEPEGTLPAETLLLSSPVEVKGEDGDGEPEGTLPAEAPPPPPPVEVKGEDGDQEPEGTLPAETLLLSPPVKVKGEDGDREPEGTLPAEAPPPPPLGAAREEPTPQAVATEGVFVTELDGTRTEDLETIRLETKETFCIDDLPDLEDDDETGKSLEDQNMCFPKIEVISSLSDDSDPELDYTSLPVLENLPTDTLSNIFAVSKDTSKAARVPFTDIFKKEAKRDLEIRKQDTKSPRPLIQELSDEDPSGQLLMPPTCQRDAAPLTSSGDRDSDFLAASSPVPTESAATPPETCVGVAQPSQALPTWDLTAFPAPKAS", "experiment": "co-IP; HEK293 cells over-expressing FLAG (SF-TAP)-DNAAF1, with or without IFT88-eYFP; precipitation with anti-FLAG, western blot with anti-GFP or anti-RUVBL1; 50 mM Tris pH 8.0, 150 mM NaCl, 0.5 mM EDTA, 4 °C"}, "[2]": {"molecular_target": "T2, endogenous IFT88 (human (endogenous in HEK293)) (UniProt Q13099)", "T2 sequence": "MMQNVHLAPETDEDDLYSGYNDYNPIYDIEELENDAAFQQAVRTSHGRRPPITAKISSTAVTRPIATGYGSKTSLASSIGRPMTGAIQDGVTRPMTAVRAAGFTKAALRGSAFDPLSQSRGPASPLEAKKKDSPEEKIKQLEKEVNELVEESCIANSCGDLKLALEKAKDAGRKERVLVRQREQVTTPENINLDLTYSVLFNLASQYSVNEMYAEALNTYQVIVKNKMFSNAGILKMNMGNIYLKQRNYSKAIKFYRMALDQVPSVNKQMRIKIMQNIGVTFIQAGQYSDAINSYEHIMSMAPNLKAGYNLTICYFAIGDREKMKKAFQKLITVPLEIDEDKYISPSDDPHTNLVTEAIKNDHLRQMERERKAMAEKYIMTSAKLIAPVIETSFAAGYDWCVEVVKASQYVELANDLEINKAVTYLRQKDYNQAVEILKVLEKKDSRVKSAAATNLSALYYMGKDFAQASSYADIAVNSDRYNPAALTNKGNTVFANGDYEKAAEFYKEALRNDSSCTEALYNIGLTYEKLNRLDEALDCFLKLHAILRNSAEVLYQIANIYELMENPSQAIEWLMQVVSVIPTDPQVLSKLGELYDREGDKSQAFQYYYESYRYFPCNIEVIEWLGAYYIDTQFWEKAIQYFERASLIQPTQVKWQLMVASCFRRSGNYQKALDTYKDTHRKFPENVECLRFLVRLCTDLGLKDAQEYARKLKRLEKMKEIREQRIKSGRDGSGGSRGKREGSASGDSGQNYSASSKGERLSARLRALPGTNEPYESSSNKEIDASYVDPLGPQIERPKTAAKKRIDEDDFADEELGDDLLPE", "experiment": "co-IP; HEK293 cells over-expressing FLAG (SF-TAP)-DNAAF1; endogenous IFT88 precipitated with anti-IFT88, western blot with anti-FLAG; 50 mM Tris pH 8.0, 150 mM NaCl, 0.5 mM EDTA, 4 °C"}, "[3]": {"molecular_target": "T1, SF-TAP-DNAAF1 wild-type (p.Leu191) (human)", "experiment": "co-IP; HEK293 cells over-expressing FLAG (SF-TAP)-DNAAF1, with or without IFT88-eYFP; precipitation with anti-FLAG, western blot with anti-GFP or anti-RUVBL1; 50 mM Tris pH 8.0, 150 mM NaCl, 0.5 mM EDTA, 4 °C", "remark": "listed apart in the source"}},
  "note": "Where two headings read alike, the source gives them in different places. No constants are given. Whether binding was seen depends on the method and setting. In cells and extracts the contact can be indirect. Some results given as binding are weak or reduced against the parent protein; the word gives no strength. For part of these data: Sequences can lack the tags named with a protein.",
  "data": [
    {"molecule": "RUVBL1 (from UniProt Q9Y265 1-456)", "values": [
      {"measurement": "binding", "setting": "[1]", "result": "binds"}
    ]},
    {"molecule": "B1", "values": [
      {"measurement": "binding", "setting": "[2]", "result": "binds"}
    ]},
    {"molecule": "B2", "values": [
      {"measurement": "binding", "setting": "[3]", "result": "binds"}
    ]}
  ]
}
